# Source: patent US5905036A, “Characterization of organic contaminants and assessment of remediation performance in subsurface formations” (Board Of Regents, The University of Texas System, priority 1997, dated 1999)
# Assay: Partitioning tracer column experiment, PCE-contaminated water-saturated Ottawa sand (Example 1)
# Type: physicochemical
# Experimental: A soil column experiment was performed to illustrate the use of partitioning tracers to detect DNAPL in a saturated zone. A Kontes preparative chromatography column made of borosilicate glass (4.8 cm ID) was packed with-mesh sizes of 60 to 200 Ottawa sand and saturated with water at 23° C. The length of this sandpack was 12.24 cm. The porosity and intrinsic permeability to water were measured and found to be 0.329 and 5.84 Darcy, respectively. […] Two alcohol tracers were added to the water and 0.52 pore volumes of water containing these tracers were injected at 0.316 ml/min followed by several more pore volumes of water until the alcohols could no longer be detected in the effluent. […] The partition coefficients of each of these alcohols were determined by equilibrating samples containing in the range of 100 to 1,000 mg/l of both alcohols with equal volumes of water and PCE and measuring the alcohol concentrations in each phase using a gas chromatograph. […]
# The separation of the two curves gives an unmistakable signal that the sand is contaminated with PCE. […] This value agrees with the value measured from a mass balance on the PCE within the experimental error of each of the measurements. The tracer curves were then numerically simulated using this value and the measured partition coefficients and these are the curves shown in FIG. 1. […]
smiles,measurement,setting,value
"ClC(Cl)=C(Cl)Cl [PCE, tetrachloroethylene]","residual PCE saturation, method of moments",from IPA/DMB tracer separation,0.189
same,"residual PCE saturation, inverse modeling",nonlinear least-squares regression,0.209
